According to the supplement of paper PMC12823440, “Inhibitors supercharge kinase turnover through native proteolytic circuits” (Nature, 2025):
The other results are listed elsewhere or left out. The calls rarely recur for the same compound in another form.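 Kinases, fused to nanoluciferase, were expressed in K562 cells; luminescence was measured every 4 h from 2 to 18 h as percent of control (DMSO = 100%, positive control = 0%). A time point is decreased if signal falls significantly (2 sigma). Hits were called by the authors by a rule that is not shown; the count of time points alone does not decide it.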

Amino acid sequences for entries named in this document (tags omitted). A change or cut given only in a name is not applied to a line headed by its entry.
UniProt O75460: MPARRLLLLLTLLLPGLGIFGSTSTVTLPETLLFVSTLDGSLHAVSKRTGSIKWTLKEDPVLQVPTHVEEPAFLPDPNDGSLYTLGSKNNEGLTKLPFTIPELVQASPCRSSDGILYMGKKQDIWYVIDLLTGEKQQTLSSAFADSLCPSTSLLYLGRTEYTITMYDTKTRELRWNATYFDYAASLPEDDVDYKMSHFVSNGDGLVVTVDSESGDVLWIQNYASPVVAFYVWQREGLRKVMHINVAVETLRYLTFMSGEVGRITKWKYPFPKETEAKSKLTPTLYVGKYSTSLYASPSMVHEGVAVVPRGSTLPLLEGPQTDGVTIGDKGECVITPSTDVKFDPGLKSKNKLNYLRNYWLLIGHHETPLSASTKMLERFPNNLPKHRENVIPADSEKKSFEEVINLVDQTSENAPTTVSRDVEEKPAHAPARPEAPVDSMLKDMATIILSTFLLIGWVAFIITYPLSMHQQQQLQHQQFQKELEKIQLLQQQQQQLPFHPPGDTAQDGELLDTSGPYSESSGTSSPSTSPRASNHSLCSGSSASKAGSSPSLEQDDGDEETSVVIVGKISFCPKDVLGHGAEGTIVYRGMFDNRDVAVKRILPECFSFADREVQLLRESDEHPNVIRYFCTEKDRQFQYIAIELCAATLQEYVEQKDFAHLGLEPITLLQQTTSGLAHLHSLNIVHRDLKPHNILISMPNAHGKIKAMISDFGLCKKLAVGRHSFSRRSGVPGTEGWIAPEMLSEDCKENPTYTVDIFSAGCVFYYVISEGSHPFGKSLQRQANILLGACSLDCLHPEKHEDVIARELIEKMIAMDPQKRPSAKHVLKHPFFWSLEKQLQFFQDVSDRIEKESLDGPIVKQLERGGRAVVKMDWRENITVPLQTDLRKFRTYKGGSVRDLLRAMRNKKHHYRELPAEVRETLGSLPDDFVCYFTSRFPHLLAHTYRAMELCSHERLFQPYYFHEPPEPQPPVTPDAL
UniProt P21802, whole entry, looked up: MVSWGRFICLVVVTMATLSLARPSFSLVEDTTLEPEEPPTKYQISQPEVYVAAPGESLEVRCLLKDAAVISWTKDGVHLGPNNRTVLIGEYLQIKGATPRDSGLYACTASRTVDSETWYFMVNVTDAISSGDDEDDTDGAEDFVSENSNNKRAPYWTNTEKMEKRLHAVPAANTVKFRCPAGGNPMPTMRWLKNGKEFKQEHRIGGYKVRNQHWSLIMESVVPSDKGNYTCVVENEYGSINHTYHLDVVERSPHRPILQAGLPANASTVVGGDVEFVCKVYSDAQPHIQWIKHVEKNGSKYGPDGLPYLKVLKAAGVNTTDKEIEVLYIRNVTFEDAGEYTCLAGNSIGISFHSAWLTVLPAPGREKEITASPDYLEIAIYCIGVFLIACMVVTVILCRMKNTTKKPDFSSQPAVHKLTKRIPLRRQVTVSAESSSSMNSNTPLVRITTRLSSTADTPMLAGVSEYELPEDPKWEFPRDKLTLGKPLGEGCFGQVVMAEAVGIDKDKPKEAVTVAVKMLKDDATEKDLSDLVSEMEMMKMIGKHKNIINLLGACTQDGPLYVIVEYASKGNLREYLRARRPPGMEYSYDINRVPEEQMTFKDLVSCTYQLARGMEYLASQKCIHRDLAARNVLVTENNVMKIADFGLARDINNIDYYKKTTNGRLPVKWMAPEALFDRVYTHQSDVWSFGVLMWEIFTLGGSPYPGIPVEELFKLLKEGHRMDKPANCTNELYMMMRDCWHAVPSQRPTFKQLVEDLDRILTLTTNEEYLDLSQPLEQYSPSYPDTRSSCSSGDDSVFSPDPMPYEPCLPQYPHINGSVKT
UniProt P22607, whole entry, looked up: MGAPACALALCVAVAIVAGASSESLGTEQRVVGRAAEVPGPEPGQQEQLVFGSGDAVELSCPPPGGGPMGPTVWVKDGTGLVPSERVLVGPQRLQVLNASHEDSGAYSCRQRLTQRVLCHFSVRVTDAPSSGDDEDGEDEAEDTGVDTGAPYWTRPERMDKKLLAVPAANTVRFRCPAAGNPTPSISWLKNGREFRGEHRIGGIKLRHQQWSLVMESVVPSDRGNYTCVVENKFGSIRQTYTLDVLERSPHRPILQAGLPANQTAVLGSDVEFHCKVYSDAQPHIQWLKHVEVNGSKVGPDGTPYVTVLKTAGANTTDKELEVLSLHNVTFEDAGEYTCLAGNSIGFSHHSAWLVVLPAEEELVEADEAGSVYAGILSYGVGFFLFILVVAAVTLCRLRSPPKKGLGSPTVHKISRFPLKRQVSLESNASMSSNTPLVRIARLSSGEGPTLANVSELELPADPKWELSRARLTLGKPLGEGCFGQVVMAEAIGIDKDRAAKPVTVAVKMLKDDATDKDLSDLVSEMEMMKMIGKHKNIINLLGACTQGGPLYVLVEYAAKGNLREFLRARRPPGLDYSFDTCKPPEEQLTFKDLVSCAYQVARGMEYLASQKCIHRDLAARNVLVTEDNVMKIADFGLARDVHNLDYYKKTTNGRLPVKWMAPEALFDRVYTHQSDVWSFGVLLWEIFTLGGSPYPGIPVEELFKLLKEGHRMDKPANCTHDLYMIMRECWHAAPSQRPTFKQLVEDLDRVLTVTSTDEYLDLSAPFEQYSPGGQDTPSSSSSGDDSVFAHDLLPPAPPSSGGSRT
UniProt P36888, whole entry: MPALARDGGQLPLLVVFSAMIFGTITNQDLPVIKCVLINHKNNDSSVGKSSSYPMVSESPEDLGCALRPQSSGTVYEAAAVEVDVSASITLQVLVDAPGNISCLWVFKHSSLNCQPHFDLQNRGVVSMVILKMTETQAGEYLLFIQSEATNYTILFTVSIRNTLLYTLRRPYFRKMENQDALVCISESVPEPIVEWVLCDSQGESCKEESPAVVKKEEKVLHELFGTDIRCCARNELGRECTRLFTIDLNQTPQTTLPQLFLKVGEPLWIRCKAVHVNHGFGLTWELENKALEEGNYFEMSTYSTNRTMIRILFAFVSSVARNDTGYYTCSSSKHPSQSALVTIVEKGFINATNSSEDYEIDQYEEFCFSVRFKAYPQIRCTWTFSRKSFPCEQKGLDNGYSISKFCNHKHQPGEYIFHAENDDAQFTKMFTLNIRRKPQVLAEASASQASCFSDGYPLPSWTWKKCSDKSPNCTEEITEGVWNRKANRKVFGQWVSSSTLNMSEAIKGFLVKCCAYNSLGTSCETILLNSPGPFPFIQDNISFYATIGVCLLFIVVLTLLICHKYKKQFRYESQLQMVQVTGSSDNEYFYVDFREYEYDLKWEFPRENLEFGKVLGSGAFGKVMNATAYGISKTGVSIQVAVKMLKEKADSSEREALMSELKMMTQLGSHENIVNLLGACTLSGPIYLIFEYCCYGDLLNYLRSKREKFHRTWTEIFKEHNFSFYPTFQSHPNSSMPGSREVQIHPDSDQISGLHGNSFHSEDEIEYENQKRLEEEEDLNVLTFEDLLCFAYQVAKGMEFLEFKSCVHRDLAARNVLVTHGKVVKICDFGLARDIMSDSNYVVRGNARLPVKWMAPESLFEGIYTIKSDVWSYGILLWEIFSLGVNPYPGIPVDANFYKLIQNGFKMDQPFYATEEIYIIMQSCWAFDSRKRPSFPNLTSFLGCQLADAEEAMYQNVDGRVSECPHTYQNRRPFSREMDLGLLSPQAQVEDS
UniProt P06241, whole entry, looked up: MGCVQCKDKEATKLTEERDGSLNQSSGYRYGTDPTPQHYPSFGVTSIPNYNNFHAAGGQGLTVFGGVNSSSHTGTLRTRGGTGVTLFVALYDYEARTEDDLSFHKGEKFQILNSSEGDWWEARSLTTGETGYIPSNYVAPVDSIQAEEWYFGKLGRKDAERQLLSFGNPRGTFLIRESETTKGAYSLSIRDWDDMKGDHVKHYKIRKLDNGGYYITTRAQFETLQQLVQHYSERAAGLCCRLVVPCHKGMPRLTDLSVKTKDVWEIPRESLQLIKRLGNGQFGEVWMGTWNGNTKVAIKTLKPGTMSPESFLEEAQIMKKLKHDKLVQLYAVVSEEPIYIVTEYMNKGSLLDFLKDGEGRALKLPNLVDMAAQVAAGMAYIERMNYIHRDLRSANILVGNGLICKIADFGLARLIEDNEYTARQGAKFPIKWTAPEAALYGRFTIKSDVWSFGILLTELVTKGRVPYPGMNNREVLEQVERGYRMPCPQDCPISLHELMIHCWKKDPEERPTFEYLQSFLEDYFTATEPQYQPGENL
UniProt P49840: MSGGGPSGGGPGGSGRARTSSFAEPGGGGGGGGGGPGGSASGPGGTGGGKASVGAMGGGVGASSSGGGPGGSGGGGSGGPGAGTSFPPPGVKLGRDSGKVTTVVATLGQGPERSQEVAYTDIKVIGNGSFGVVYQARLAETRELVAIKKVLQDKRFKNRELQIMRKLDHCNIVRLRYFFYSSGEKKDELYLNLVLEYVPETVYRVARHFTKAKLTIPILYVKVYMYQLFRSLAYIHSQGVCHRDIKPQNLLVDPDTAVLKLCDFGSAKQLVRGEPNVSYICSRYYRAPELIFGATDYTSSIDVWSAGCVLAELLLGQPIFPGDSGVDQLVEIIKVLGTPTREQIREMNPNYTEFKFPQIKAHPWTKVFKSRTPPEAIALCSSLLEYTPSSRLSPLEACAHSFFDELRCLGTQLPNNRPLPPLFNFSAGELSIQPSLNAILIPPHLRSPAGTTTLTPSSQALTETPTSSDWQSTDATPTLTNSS
UniProt P14616: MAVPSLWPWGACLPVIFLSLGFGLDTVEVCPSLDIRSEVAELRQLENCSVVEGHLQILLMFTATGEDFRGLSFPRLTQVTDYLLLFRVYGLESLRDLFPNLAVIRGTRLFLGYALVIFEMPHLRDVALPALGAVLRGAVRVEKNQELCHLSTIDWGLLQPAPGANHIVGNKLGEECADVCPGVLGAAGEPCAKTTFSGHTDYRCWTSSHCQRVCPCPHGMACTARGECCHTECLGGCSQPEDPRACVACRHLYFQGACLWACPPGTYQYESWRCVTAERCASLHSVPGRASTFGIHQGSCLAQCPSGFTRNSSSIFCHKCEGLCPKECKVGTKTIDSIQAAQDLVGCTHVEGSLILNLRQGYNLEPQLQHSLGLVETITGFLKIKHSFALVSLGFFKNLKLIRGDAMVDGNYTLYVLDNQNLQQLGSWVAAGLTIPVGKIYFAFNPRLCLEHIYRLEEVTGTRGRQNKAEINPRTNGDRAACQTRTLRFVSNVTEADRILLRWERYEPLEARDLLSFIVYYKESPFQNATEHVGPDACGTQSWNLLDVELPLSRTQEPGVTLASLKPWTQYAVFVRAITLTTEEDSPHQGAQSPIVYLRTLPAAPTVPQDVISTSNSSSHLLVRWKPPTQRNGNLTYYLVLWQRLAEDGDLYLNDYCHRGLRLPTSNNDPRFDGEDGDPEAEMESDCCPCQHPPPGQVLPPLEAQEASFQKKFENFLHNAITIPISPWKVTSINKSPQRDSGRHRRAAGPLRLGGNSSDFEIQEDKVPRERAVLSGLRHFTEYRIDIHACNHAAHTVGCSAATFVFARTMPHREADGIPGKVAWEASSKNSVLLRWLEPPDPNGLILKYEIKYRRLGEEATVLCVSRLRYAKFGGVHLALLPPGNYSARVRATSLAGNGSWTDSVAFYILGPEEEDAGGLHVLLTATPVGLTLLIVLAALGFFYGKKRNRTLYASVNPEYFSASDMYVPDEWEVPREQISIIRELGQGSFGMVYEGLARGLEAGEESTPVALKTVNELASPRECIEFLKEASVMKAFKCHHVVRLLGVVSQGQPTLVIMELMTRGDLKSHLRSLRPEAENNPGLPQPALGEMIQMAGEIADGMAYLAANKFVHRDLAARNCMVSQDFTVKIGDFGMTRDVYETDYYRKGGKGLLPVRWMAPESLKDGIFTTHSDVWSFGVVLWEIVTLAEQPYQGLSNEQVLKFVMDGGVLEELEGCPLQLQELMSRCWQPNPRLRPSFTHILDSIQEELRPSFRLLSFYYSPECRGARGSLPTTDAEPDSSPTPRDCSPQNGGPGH

Assays:
Experiment in all cases: kinase-Nluc reporter destabilization hit call (1 = scored as downregulated) (binary); higher = compound decreases kinase abundance
Conditions in all cases: K562; 2-18 h
ERN1 = ERN1 (UniProt O75460)
FGFR1 = FGFR1 (UniProt P11362)
FGFR2 = FGFR2 (UniProt P21802)
FGFR3 = FGFR3 (UniProt P22607)
FGR = FGR (UniProt P09769)
FLT3 = FLT3 (UniProt P36888)
FYN = FYN (UniProt P06241)
GSK3A = GSK3A (UniProt P49840)
HER2 = HER2 (UniProt P04626)
INSRR = INSRR (UniProt P14616)

Measured: kinase-Nluc reporter destabilization hit call

Cc1ccc(-c2ccc3c(ccc4sc5c(c43)NC[C@@H](C)NC5=O)n2)cn1 (10 µM)
inactive: ERN1 = 0 | FGFR1 = 0 | FGFR2 = 0 | FGFR3 = 0 | FGR 0 | FLT3 = 0 | FYN 0 | GSK3A 0 | HER2 = 0 | INSRR 0

O=C(NOCCO)c1ccc2cncn2c1Nc1ccc(I)cc1F (10 µM)
inactive: ERN1 = 0 | FGFR1 = 0 | FGFR2 = 0 | FGFR3 = 0 | FGR 0 | FLT3 = 0 | FYN 0 | GSK3A 0 | HER2 = 0 | INSRR 0

Cn1cc(-c2ccc3nnc(C(F)(F)c4ccc5ncccc5c4)n3n2)cn1 (10 µM)
inactive: ERN1 = 0 | FGFR1 = 0 | FGFR2 = 0 | FGFR3 = 0 | FGR 0 | FLT3 = 0 | FYN 0 | GSK3A 0 | HER2 = 0 | INSRR 0

Nc1cc(C(F)(F)F)c(-c2nc(N3CCOCC3)nc(N3CCOCC3)n2)cn1 [Bimiralisib] (10 µM)
inactive: ERN1 = 0 | FGFR1 = 0 | FGFR2 = 0 | FGFR3 = 0 | FGR 0 | FLT3 = 0 | FYN 0 | GSK3A 0 | HER2 = 0 | INSRR 0

Cn1cc(-c2ccc(F)c(C(F)(F)F)c2)nc1C1CCN(c2ncnc3[nH]ncc23)CC1 (10 µM)
inactive: ERN1 = 0 | FGFR1 = 0 | FGFR2 = 0 | FGFR3 = 0 | FGR 0 | FLT3 = 0 | FYN 0 | GSK3A 0 | HER2 = 0 | INSRR 0

CNC(=O)c1cc(Oc2ccc3nc(N[C@@H]4CCCC[C@H]4O)sc3c2)ccn1 (10 µM)
inactive: ERN1 = 0 | FGFR1 = 0 | FGFR2 = 0 | FGFR3 = 0 | FGR 0 | FLT3 = 0 | FYN 0 | GSK3A 0 | HER2 = 0 | INSRR 0

COc1cc(-c2cc(-c3cc(OC)c(OC)c(OC)c3)cc(C(F)P(=O)(OCOC(=O)C(C)(C)C)OCOC(=O)C(C)(C)C)c2)cc(OC)c1OC (stereo not given) [Stafia-1-dipivaloyloxymethyl ester] (2.5 µM)
inactive: ERN1 = 0 | FGFR1 = 0 | FGFR2 = 0 | FGFR3 = 0 | FGR 0 | FLT3 = 0 | FYN 0 | GSK3A 0 | HER2 = 0 | INSRR 0

O=C(Nc1ccc(Cl)c(Cl)c1)Nc1ccc2nnsc2c1 (10 µM)
inactive: ERN1 = 0 | FGFR1 = 0 | FGFR2 = 0 | FGFR3 = 0 | FGR 0 | FLT3 = 0 | FYN 0 | GSK3A 0 | HER2 = 0 | INSRR 0

C[C@@H]1O[C@@H](OC[C@H]2O[C@@H](Oc3cc(O)c4c(c3)O[C@H](c3ccc(O)cc3)CC4=O)[C@H](O)[C@@H](O)[C@@H]2O)[C@H](O)[C@H](O)[C@H]1O [Narirutin] (10 µM)
inactive: ERN1 = 0 | FGFR1 = 0 | FGFR2 = 0 | FGFR3 = 0 | FGR 0 | FLT3 = 0 | FYN 0 | GSK3A 0 | HER2 = 0 | INSRR 0

O=C(O)c1ccc(-c2c[nH]c3ncc(-c4ccccc4)cc23)cc1C1CCCC1 (2.5 µM)
inactive: ERN1 = 0 | FGFR1 = 0 | FGFR2 = 0 | FGFR3 = 0 | FGR 0 | FLT3 = 0 | FYN 0 | GSK3A 0 | HER2 = 0 | INSRR 0

CCOC(=O)c1c2c3c(cccc3[nH]c1=O)C(=O)c1ccccc1-2 (10 µM)
inactive: ERN1 = 0 | FGFR1 = 0 | FGFR2 = 0 | FGFR3 = 0 | FGR 0 | FLT3 = 0 | FYN 0 | GSK3A 0 | HER2 = 0 | INSRR 0

O=C(CO)N1CCC(c2n[nH]c(-c3ccc(Cl)cc3)c2-c2ccncn2)CC1 (10 µM)
inactive: ERN1 = 0 | FGFR1 = 0 | FGFR2 = 0 | FGFR3 = 0 | FGR 0 | FLT3 = 0 | FYN 0 | GSK3A 0 | HER2 = 0 | INSRR 0

c1ccc(-c2nn3c(c2-c2ccnc4cc(OCCN5CCOCC5)ccc24)CCC3)nc1 (10 µM)
inactive: ERN1 = 0 | FGFR1 = 0 | FGFR2 = 0 | FGFR3 = 0 | FGR 0 | FLT3 = 0 | FYN 0 | GSK3A 0 | HER2 = 0 | INSRR 0

CCCCCCCC/C=C\CCCCCCCC(=O)NCC(=O)O [N-Oleoyl glycine] (10 µM)
inactive: ERN1 = 0 | FGFR1 = 0 | FGFR2 = 0 | FGFR3 = 0 | FGR 0 | FLT3 = 0 | FYN 0 | GSK3A 0 | HER2 = 0 | INSRR 0

c1ccc(-c2oc3ncnc(NC[C@@H]4CCCO4)c3c2-c2ccccc2)cc1 (2.5 µM)
inactive: ERN1 = 0 | FGFR1 = 0 | FGFR2 = 0 | FGFR3 = 0 | FGR 0 | FLT3 = 0 | FYN 0 | GSK3A 0 | HER2 = 0 | INSRR 0

Cc1cc(C(C)Nc2ccccc2)c2nc(N3CCOCC3)cc(=O)n2c1 (stereo not given) (10 µM)
inactive: ERN1 = 0 | FGFR1 = 0 | FGFR2 = 0 | FGFR3 = 0 | FGR 0 | FLT3 = 0 | FYN 0 | GSK3A 0 | HER2 = 0 | INSRR 0

Part of the list above in order of formula weight, ascending.
Cc1ccc(-c2ccc3c(ccc4sc5c(c43)NC[C@@H](C)NC5=O)n2)cn1 (10 µM)
inactive: ERN1 = 0 | FGFR1 = 0 | FGFR2 = 0 | FGFR3 = 0 | FGR 0 | FLT3 = 0 | FYN 0 | GSK3A 0 | HER2 = 0 | INSRR 0

Cn1cc(-c2ccc3nnc(C(F)(F)c4ccc5ncccc5c4)n3n2)cn1 (10 µM)
inactive: ERN1 = 0 | FGFR1 = 0 | FGFR2 = 0 | FGFR3 = 0 | FGR 0 | FLT3 = 0 | FYN 0 | GSK3A 0 | HER2 = 0 | INSRR 0

CNC(=O)c1cc(Oc2ccc3nc(N[C@@H]4CCCC[C@H]4O)sc3c2)ccn1 (10 µM)
inactive: ERN1 = 0 | FGFR1 = 0 | FGFR2 = 0 | FGFR3 = 0 | FGR 0 | FLT3 = 0 | FYN 0 | GSK3A 0 | HER2 = 0 | INSRR 0

More records.

COc1ncc(Nc2ncc([C@@H](C)N3CCN(S(C)(=O)=O)CC3)cc2-c2nc(C)nc(N)n2)cc1F (10 µM)
inactive: ERN1 = 0 | FGFR1 = 0 | FGFR2 = 0 | FGFR3 = 0 | FGR 0 | FLT3 = 0 | FYN 0 | GSK3A 0 | HER2 = 0 | INSRR 0

CC1=C(C(=O)Nc2ccc3[nH]ncc3c2)C(c2ccc(F)cc2)NC(=O)N1 (stereo not given) (10 µM)
inactive: ERN1 = 0 | FGFR1 = 0 | FGFR2 = 0 | FGFR3 = 0 | FGR 0 | FLT3 = 0 | FYN 0 | GSK3A 0 | HER2 = 0 | INSRR 0

CC(C)c1cnn2c(NCc3ccccc3-n3cccn3)nc(OC3CCCNC3)nc12 (stereo not given) (2.5 µM)
inactive: ERN1 = 0 | FGFR1 = 0 | FGFR2 = 0 | FGFR3 = 0 | FGR 0 | FLT3 = 0 | FYN 0 | GSK3A 0 | HER2 = 0 | INSRR 0

COc1ccc(-n2c(C)c([N+](=O)[O-])c3ccc(O)cc32)cc1 (10 µM)
inactive: ERN1 = 0 | FGFR1 = 0 | FGFR2 = 0 | FGFR3 = 0 | FGR 0 | FLT3 = 0 | FYN 0 | GSK3A 0 | HER2 = 0 | INSRR 0

CSc1ccc(CN2CCCC(Nc3ccc4[nH]ncc4c3)C2)cc1 (stereo not given) [Rho-Kinase-IN-1] (10 µM)
inactive: ERN1 = 0 | FGFR1 = 0 | FGFR2 = 0 | FGFR3 = 0 | FGR 0 | FLT3 = 0 | FYN 0 | GSK3A 0 | HER2 = 0 | INSRR 0

C=CC(=O)Nc1cccc(-n2c(=O)cc(C)c3cnc(Nc4ccc(OCCN(C)C)cc4OC)nc32)c1 (10 µM)
inactive: ERN1 = 0 | FGFR1 = 0 | FGFR2 = 0 | FGFR3 = 0 | FGR 0 | FLT3 = 0 | FYN 0 | GSK3A 0 | HER2 = 0 | INSRR 0

C[C@@H]1C[C@H]2O[C@@]3(O[C@@H]2C(C)(C)O)[C@H](O)[C@@]2(C)[C@@H]4CC[C@H]5C(C)(C)[C@@H](O[C@@H]6OC[C@H](O)[C@H](O)[C@H]6O)CC[C@@]56C[C@@]46CC[C@]2(C)[C@@H]13 [Cimiracemoside C] (10 µM)
inactive: ERN1 = 0 | FGFR1 = 0 | FGFR2 = 0 | FGFR3 = 0 | FGR 0 | FLT3 = 0 | FYN 0 | GSK3A 0 | HER2 = 0 | INSRR 0

COc1cc2ncnc(Nc3ccc(NC(=O)c4ccccc4)cc3)c2cc1OC [Aurora kinase inhibitor-2] (2.5 µM)
inactive: ERN1 = 0 | FGFR1 = 0 | FGFR2 = 0 | FGFR3 = 0 | FGR 0 | FLT3 = 0 | FYN 0 | GSK3A 0 | HER2 = 0 | INSRR 0

COC(=O)N[C@@H](C)CNc1nccc(-c2cn(C(C)C)nc2-c2cc(Cl)cc(NS(C)(=O)=O)c2F)n1 [Encorafenib] (10 µM)
inactive: ERN1 = 0 | FGFR1 = 0 | FGFR2 = 0 | FGFR3 = 0 | FGR 0 | FLT3 = 0 | FYN 0 | GSK3A 0 | HER2 = 0 | INSRR 0

COc1nc(-c2ccnc(NC(=O)C3CC3)c2)sc1C(N)=O [GSK-3β inhibitor 2] (10 µM)
inactive: ERN1 = 0 | FGFR1 = 0 | FGFR2 = 0 | FGFR3 = 0 | FGR 0 | FLT3 = 0 | FYN 0 | GSK3A 0 | HER2 = 0 | INSRR 0

CN(C)Cc1cccc(N=C(c2ccccc2)c2c(O)[nH]c3cc(C(N)=O)ccc23)c1 (10 µM)
inactive: ERN1 = 0 | FGFR1 = 0 | FGFR2 = 0 | FGFR3 = 0 | FGR 0 | FLT3 = 0 | FYN 0 | GSK3A 0 | HER2 = 0 | INSRR 0

O=c1[nH]ccc2cc(OC3CCNCC3)ccc12 (10 µM)
inactive: ERN1 = 0 | FGFR1 = 0 | FGFR2 = 0 | FGFR3 = 0 | FGR 0 | FLT3 = 0 | FYN 0 | GSK3A 0 | HER2 = 0 | INSRR 0

COc1cc(C(C)=O)cc(OC)c1O [Acetosyringone] (10 µM)
inactive: ERN1 = 0 | FGFR1 = 0 | FGFR2 = 0 | FGFR3 = 0 | FGR 0 | FLT3 = 0 | FYN 0 | GSK3A 0 | HER2 = 0 | INSRR 0
